Values of other authors in US20050227915A1, “Methods and reagents for treating neurodegenerative diseases and motor deficit disorders” (priority 2001, published 2005).

How the values were obtained:
[1] = tested on: deacetylase; conditions: cited from earlier work
[2] = tested on: histone deacetylases (HDAC); conditions: on a molar basis as an inhibitor of HDAC activity; cited from earlier work

O=C(CCCCCCC(=O)Nc1ccccc1)NO [SAHA, Suberoylanilide hydroxamic acid]
Effective Inhibitory Concentration Range [1]: nM-μM | potency relative to the butyrate class of HDAC inhibitors [2]: approximately 10^3 fold
